PubChem BioAssay AID1259254 | NCATS, 2017

- Purpose: 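Genome-wide screen for genes that prevent DNA re-replication in cancer cells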 (primary screen)
- System: human HCT116 colorectal cancer cells
- Knock-down reagent: single siRNA against human genes
- Timing: 3 days
- Read-out: 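Nuclei stained with Hoechst and imaged; cell-cycle phase assigned by DNA content; G2 share scaled per plate, non-targeting siRNA 0%, GMNN siRNA 100%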
- Scale: G2 robust z-score and G2 cells, % of GMNN control: higher = more G2 cells, more excess DNA replication
- Rule for the call: 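Active siRNAs have a G2 robust z of 5 or more median absolute deviations over the median, which in these data means about 38% or higher of GMNN control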
Shown is one part, drawn at random, of about 59,000 reagents. Over the whole deposit, about 1,550 (2.6%) were called active. 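G2 share is only a proxy for re-replication; each gene was hit by three separate siRNAs, and active genes were retested.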 Not all columns of the deposit are shown. The record does not give: the amount of reagent.

LNP1 [SID160765084]
- G2 robust z-score: -0.665
- G2 cells, % of GMNN control: -1.71
- activity call: inactive

LNP1 [SID160765085]
- G2 robust z-score: -0.0166
- G2 cells, % of GMNN control: 2.85
- activity call: inactive

LNP1 [SID160765086]
- G2 robust z-score: -0.861
- G2 cells, % of GMNN control: -3.09
- activity call: inactive

RAB7A [SID160719447]
- G2 robust z-score: 2.46
- G2 cells, % of GMNN control: 20.2
- activity call: inactive

RAB7A [SID160719448]
- G2 robust z-score: 0.739
- G2 cells, % of GMNN control: 8.17
- activity call: inactive

RAB7A [SID160719449]
- G2 robust z-score: -0.85
- G2 cells, % of GMNN control: -3.02
- activity call: inactive

NUP88 [SID160778302]
- G2 robust z-score: 0.299
- G2 cells, % of GMNN control: 5.07
- activity call: inactive

NUP88 [SID160778304]
- G2 robust z-score: -0.301
- G2 cells, % of GMNN control: 0.848
- activity call: inactive

NUP88 [SID160778305]
- G2 robust z-score: -0.378
- G2 cells, % of GMNN control: 0.308
- activity call: inactive

ATG3 [SID160747766]
- G2 robust z-score: -0.103
- G2 cells, % of GMNN control: 2.25
- activity call: inactive

ATG3 [SID160747767]
- G2 robust z-score: 1.2
- G2 cells, % of GMNN control: 11.4
- activity call: inactive

ATG3 [SID160747768]
- G2 robust z-score: -0.908
- G2 cells, % of GMNN control: -3.42
- activity call: inactive

SELENOP [SID160716572]
- G2 robust z-score: -0.119
- G2 cells, % of GMNN control: 2.13
- activity call: inactive

SELENOP [SID160716573]
- G2 robust z-score: 0.0271
- G2 cells, % of GMNN control: 3.16
- activity call: inactive

SELENOP [SID160716576]
- G2 robust z-score: -0.411
- G2 cells, % of GMNN control: 0.0755
- activity call: inactive

Quoted from the listing, 2 entries:
NUP88 [SID160778302]
- G2 robust z-score: 0.299
- G2 cells, % of GMNN control: 5.07
- activity call: inactive

NUP88 [SID160778304]
- G2 robust z-score: -0.301
- G2 cells, % of GMNN control: 0.848
- activity call: inactive

The results go on:
SLC25A33 [SID160752026]
- G2 robust z-score: 1.84
- G2 cells, % of GMNN control: 15.9
- activity call: inactive

SLC25A33 [SID160752028]
- G2 robust z-score: 0.199
- G2 cells, % of GMNN control: 4.37
- activity call: inactive

SLC25A33 [SID160752029]
- G2 robust z-score: -0.66
- G2 cells, % of GMNN control: -1.67
- activity call: inactive

H2BC14 [SID160719879]
- G2 robust z-score: -0.891
- G2 cells, % of GMNN control: -3.3
- activity call: inactive

H2BC14 [SID160724147]
- G2 robust z-score: 2.51
- G2 cells, % of GMNN control: 20.6
- activity call: inactive

H2BC14 [SID160735028]
- G2 robust z-score: 4.98
- G2 cells, % of GMNN control: 38
- activity call: inactive

PSMD4 [SID160715239]
- G2 robust z-score: 4.04
- G2 cells, % of GMNN control: 31.4
- activity call: inactive

PSMD4 [SID160715240]
- G2 robust z-score: -0.275
- G2 cells, % of GMNN control: 1.04
- activity call: inactive

PSMD4 [SID160715241]
- G2 robust z-score: 2.35
- G2 cells, % of GMNN control: 19.5
- activity call: inactive
